Data reported in article PMC1291380.

Biological target: T1, flag-tagged Wnt-5a (Xwnt-5a) (Xenopus) (UniProt P31286)
T1 sequence: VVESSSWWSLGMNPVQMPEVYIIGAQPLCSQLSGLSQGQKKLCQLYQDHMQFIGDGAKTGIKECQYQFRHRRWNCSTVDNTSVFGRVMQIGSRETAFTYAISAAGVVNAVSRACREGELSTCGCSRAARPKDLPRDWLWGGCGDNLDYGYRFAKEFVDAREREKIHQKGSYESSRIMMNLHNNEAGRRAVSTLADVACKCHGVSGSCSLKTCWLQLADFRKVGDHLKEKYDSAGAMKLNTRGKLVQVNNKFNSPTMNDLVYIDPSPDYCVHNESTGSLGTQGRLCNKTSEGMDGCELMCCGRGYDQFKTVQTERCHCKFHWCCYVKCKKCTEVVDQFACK
Assay: co-IP; extract of gastrula stage Xenopus embryos injected with both mRNAs; NP-40 lysis buffer (10 mM Tris-HCl pH 7.5, 100 mM NaCl, 2 mM EDTA, 1 mM EGTA, 0.5% NP-40, 5% glycerol); anti-flag (M2), anti-myc (9E10) or mouse IgG as control, 4°C, protein G beads; blot with anti-myc or anti-flag

binding: binds
Substance: Myc-tagged Xfz4S (Xenopus frizzled-4S, splicing variant of Xfz4)

Results are given in words; binding and its absence hold for the method and conditions named. In cells and extracts the contact can be indirect. Binding can be weak; no strength is given. Where a sequence is shown, tags or fusion partners need not be part of it.
